Taken from: PubChem BioAssay AID504764 (Drosophila RNAi Screening Center, 2011)
In all, the deposit lists about 22,000 reagents; this is a random part of those that have a named target and a result. Of all reagents, 403 (1.9%) got an active call. 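Unnormalised raw counts per well; ratio z-scores behind the hit calls and whether each hit raises or lowers signal are not deposited.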 No sequences are given here. Not stated in the record: the amount of reagent.

Purpose: 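Genes whose knock-down alters Notch-dependent transcription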 (primary screen)
Cell system: Drosophila Kc167 cells
Reagents: long dsRNA against Drosophila genes
Time to read-out: about 5 days (4 days dsRNA, then 24 h after transfection)
Conditions: transfection of constitutively active membrane-tethered Notch lacking the extracellular domain, read 24 h later
Measured: 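Firefly luciferase from an E(spl)m3 reporter with active Notch, plus control-promoter and uninduced reporter wells for normalisation; unnormalised counts, duplicate wells a and b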
Reading the numbers: induced reporter light, run 1, well a and induced reporter light, run 1, well b: higher = more light from the Notch target reporter with active Notch; control promoter light, run 1, well a and control promoter light, run 1, well b: higher = more light from the viral control promoter (cell number, transfection, viability); uninduced reporter light, run 1, well a: higher = more light from the Notch target reporter without active Notch
Call rule: 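Wells with low control signal or poorly matching duplicates excluded; duplicates averaged; per source plate, z beyond ±2 for induced/control log2 ratio or beyond ±1.8 for induced/uninduced marks a hit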
Meaning of the calls: active = modifier hit (raised or lowered Notch signal); inactive = not a hit

dmrt99B [DRSC15045]: induced reporter light, run 1, well a = 6320; induced reporter light, run 1, well b = 4282; control promoter light, run 1, well a = 9250; control promoter light, run 1, well b = 9095; uninduced reporter light, run 1, well a = 2215; outcome = inactive
CG31104 [DRSC14658]: induced reporter light, run 1, well a = 1.29e5; induced reporter light, run 1, well b = 1.28e5; control promoter light, run 1, well a = 1.95e5; control promoter light, run 1, well b = 2.00e5; uninduced reporter light, run 1, well a = 11770; outcome = inactive
CG13908 (retired record) [DRSC08378]: induced reporter light, run 1, well a = 1.42e5; induced reporter light, run 1, well b = 1.62e5; control promoter light, run 1, well a = 1.87e5; control promoter light, run 1, well b = 1.81e5; uninduced reporter light, run 1, well a = 7820; outcome = inactive
RpL27 [DRSC15638]: induced reporter light, run 1, well a = 21365; induced reporter light, run 1, well b = 19355; control promoter light, run 1, well a = 22085; control promoter light, run 1, well b = 16120; uninduced reporter light, run 1, well a = 1605; outcome = inactive
Sid [DRSC16588]: induced reporter light, run 1, well a = 1.45e5; induced reporter light, run 1, well b = 1.54e5; control promoter light, run 1, well a = 2.26e5; control promoter light, run 1, well b = 2.11e5; uninduced reporter light, run 1, well a = 14610; outcome = inactive
fwd [DRSC08580]: induced reporter light, run 1, well a = 71060; induced reporter light, run 1, well b = 77495; control promoter light, run 1, well a = 1.23e5; control promoter light, run 1, well b = 1.42e5; uninduced reporter light, run 1, well a = 5885; outcome = inactive
E(spl)m8-HLH [DRSC16654]: induced reporter light, run 1, well a = 1.59e5; induced reporter light, run 1, well b = 1.72e5; control promoter light, run 1, well a = 1.72e5; control promoter light, run 1, well b = 1.59e5; uninduced reporter light, run 1, well a = 13970; outcome = inactive
Acox3 [DRSC03251]: induced reporter light, run 1, well a = 1.20e5; induced reporter light, run 1, well b = 1.36e5; control promoter light, run 1, well a = 2.28e5; control promoter light, run 1, well b = 2.09e5; uninduced reporter light, run 1, well a = 8105; outcome = active
CG31781 (retired record) [DRSC02431]: induced reporter light, run 1, well a = 2.64e5; induced reporter light, run 1, well b = 2.10e5; control promoter light, run 1, well a = 1.41e5; control promoter light, run 1, well b = 1.59e5; uninduced reporter light, run 1, well a = 14985; outcome = inactive
CG31781 (retired record) [DRSC02432]: induced reporter light, run 1, well a = 1.52e5; induced reporter light, run 1, well b = 1.34e5; control promoter light, run 1, well a = 1.78e5; control promoter light, run 1, well b = 2.03e5; uninduced reporter light, run 1, well a = 13345; outcome = inactive
Hsp70Bc [DRSC16053]: induced reporter light, run 1, well a = 1.04e5; induced reporter light, run 1, well b = 1.09e5; control promoter light, run 1, well a = 1.08e5; control promoter light, run 1, well b = 84920; uninduced reporter light, run 1, well a = 5910; outcome = inactive

Active calls, among the entries above:
Acox3 [DRSC03251]: induced reporter light, run 1, well a = 1.20e5; induced reporter light, run 1, well b = 1.36e5; control promoter light, run 1, well a = 2.28e5; control promoter light, run 1, well b = 2.09e5; uninduced reporter light, run 1, well a = 8105; outcome = active

Additional records follow.
nahoda [DRSC03954]: induced reporter light, run 1, well a = 64180; induced reporter light, run 1, well b = 67440; control promoter light, run 1, well a = 84105; control promoter light, run 1, well b = 75060; uninduced reporter light, run 1, well a = 7865; outcome = inactive
nahoda [DRSC04126]: induced reporter light, run 1, well a = 3.06e5; induced reporter light, run 1, well b = 2.96e5; control promoter light, run 1, well a = 2.65e5; control promoter light, run 1, well b = 2.87e5; uninduced reporter light, run 1, well a = 20470; outcome = inactive
CG2147 [DRSC18211]: induced reporter light, run 1, well a = 1.94e5; induced reporter light, run 1, well b = 2.16e5; control promoter light, run 1, well a = 2.42e5; control promoter light, run 1, well b = 2.47e5; uninduced reporter light, run 1, well a = 13620; outcome = inactive
AP-1gamma [DRSC18433]: induced reporter light, run 1, well a = 97115; induced reporter light, run 1, well b = 96050; control promoter light, run 1, well a = 1.29e5; control promoter light, run 1, well b = 92340; uninduced reporter light, run 1, well a = 6920; outcome = inactive
CG4409 [DRSC06869]: induced reporter light, run 1, well a = 1.00e5; induced reporter light, run 1, well b = 1.06e5; control promoter light, run 1, well a = 1.30e5; control promoter light, run 1, well b = 1.90e5; uninduced reporter light, run 1, well a = 13485; outcome = inactive
Snap25 [DRSC21228]: induced reporter light, run 1, well a = 85235; induced reporter light, run 1, well b = 85770; control promoter light, run 1, well a = 93725; control promoter light, run 1, well b = 1.10e5; uninduced reporter light, run 1, well a = 8865; outcome = inactive
Snap25 [DRSC21236]: induced reporter light, run 1, well a = 90010; induced reporter light, run 1, well b = 67575; control promoter light, run 1, well a = 90070; control promoter light, run 1, well b = 81760; uninduced reporter light, run 1, well a = 5770; outcome = inactive
